# Experimental data taken from PubChem BioAssay AID504444 (National Center for Advancing Translational Sciences (NCATS), 2011).
# The campaign covered roughly 360,000 compounds. About 7,500 (2.1%) were called active. This list was built around the results that the source calls inconclusive (neither active nor inactive); the mix of calls is not that of the screen. Calls come from the whole dose curve; as a rule, active = well fitted inhibition curve with a large enough effect; inconclusive = small, poorly fitted or top-dose-only effect, or effect the other way; inactive = flat fitted curve, though single readings scatter. Potencies of inconclusive entries are doubtful fits and often do not repeat.
# Test: Nrf2 qHTS screen for inhibitors; note: nearly all actives have a fitted effect of over 60% in size
# Conditions: A549 ARE-Fluc reporter, luciferase luminescence, 18-24 h; series mostly up to 46 µM
# Outline: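 Quantitative HTS in A549 cells stably bearing an antioxidant response element-firefly luciferase construct. Inhibition of Nrf2-driven transcription was scored by luminescence after 18-24 h of compound exposure at 37 °C.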
# Potency is the fitted concentration of half-maximal effect.
row,Structure (SMILES),Potency
1,Clc1ccc(-c2nnc(-c3ccccc3)nc2-c2c[nH]c3ccccc23)cc1,"inconclusive: 1.16 µM [activator, full curve, poor fit]"
2,O=C(Nc1cccc(S(=O)(=O)N2CCCC2)c1)c1ccc2ccccc2n1,"inconclusive: 20.6 µM [falling, partial curve, poor fit]"
3,CCCNC(=O)c1ccc(N2CCC3(CC2)CC(c2cccc(Br)c2)=NO3)c(NC(=O)c2ccc(Br)cc2)c1,inactive
4,Cc1cccc(OC(=O)CSc2nnc(CNC(=O)c3ccccc3)o2)c1C,inactive
5,O=C(Nc1ccc(S(=O)(=O)N2CCc3ccccc32)cc1)c1ccc2c(c1)OCO2,"inconclusive: 20.6 µM [falling, partial curve]"
6,CCN(CC)S(=O)(=O)c1ccc(N2CCN(c3ccccc3OC)CC2)c(N)c1,"inconclusive: 18.4 µM [falling, single point]"
7,Cc1ccc(N(CC(=O)Nc2ccc(-c3nc4ccc(C)cc4s3)cc2)S(C)(=O)=O)cc1,"inconclusive: 1.16 µM [activator, full curve, poor fit]"
8,COc1ccccc1NC1CCCCC1NS(=O)(=O)c1ccc(C)cc1 (centres undefined),"inconclusive: 29.1 µM [falling, single point]"
9,CCc1ccc(NC(=O)NC2CCCCCCC2)cc1,"inconclusive: 18.4 µM [activator, single point]"
10,NC(=O)C(c1ccc(Cl)cc1)c1ccc(Sc2ccccc2)nn1 (centres undefined),"inconclusive: 16.4 µM [falling, partial curve, poor fit]"
11,Cc1ccc(OCCSc2nc(NC(C)C)nc(NC(C)C)n2)cc1,"inconclusive: 29.1 µM [falling, single point]"
12,CS(=O)(=O)N1CCc2cc(C(=O)Nc3ccc(Cl)cc3)ccc21,"inconclusive: 13 µM [falling, single point]"
13,Cc1cc(CN(C)C(=O)c2ccc3nc(Cc4ccccc4F)oc3c2)on1,"inconclusive: 2.91 µM [activator, single point]"
14,COc1cccc(NS(=O)(=O)c2ccc(NC(C)=O)cc2)c1,"inconclusive: 13 µM [falling, partial curve, poor fit]"
15,COc1ccc(CNC(=O)/C(C#N)=C/c2cccc(OC)c2OC)cc1,"inconclusive: 29.1 µM [falling, single point]"
16,Cc1ccc(/C=N/c2sc3c(c2C#N)CCCCC3)o1,"inconclusive: 4.61 µM [activator, partial curve]"
17,COc1ccc(CCc2ccc3cc(OC)ccc3n2)cc1,"inconclusive: 29.1 µM [falling, single point]"
18,COc1ccc(-c2nnn(Cc3ccccc3)n2)cc1,"inconclusive: 13 µM [activator, partial curve, poor fit]"
19,Cc1ccc2ncc(C(=O)Nc3ccc(F)cc3F)c(=O)n2c1,"inconclusive: 2.91 µM [activator, full curve, poor fit]"
20,Cc1ccc(C)c(OCCCCn2ccnc2)c1,"inconclusive: 6.51 µM [falling, partial curve, poor fit]"
21,Cc1cc(C)c2c(=O)cc(C(=O)Nc3ccccc3C(F)(F)F)oc2c1,inactive
22,CCc1ccc(CNC(=O)c2ccc(NC(=O)N3CC(C)Sc4ccccc43)cc2)cc1 (centres undefined),inactive

# Copied from the list:
# CCN(CC)S(=O)(=O)c1ccc(N2CCN(c3ccccc3OC)CC2)c(N)c1 – Potency: inconclusive: 18.4 µM [falling, single point]
# COc1ccc(CNC(=O)/C(C#N)=C/c2cccc(OC)c2OC)cc1 – Potency: inconclusive: 29.1 µM [falling, single point]
# COc1ccccc1NC1CCCCC1NS(=O)(=O)c1ccc(C)cc1 (centres undefined) – Potency: inconclusive: 29.1 µM [falling, single point]
# NC(=O)C(c1ccc(Cl)cc1)c1ccc(Sc2ccccc2)nn1 (centres undefined) – Potency: inconclusive: 16.4 µM [falling, partial curve, poor fit]

# Additional structures follow:

row,Structure (SMILES),Potency
1,O=C(C1CC(=O)N(c2ccc3c(c2)OCCO3)C1)N1CCN(c2cccc(C(F)(F)F)c2)CC1 (centres undefined),"inconclusive: 32.6 µM [falling, single point]"
2,Cc1cc(NC(=O)CCS(=O)(=O)c2cc3c4c(c2)CCN4C(=O)CC3)ccc1Br,"inconclusive: 29.1 µM [activator, single point]"
3,CCC(C)N1C(=O)S/C(=C/c2ccc(Sc3nc4ccccc4[nH]3)o2)C1=O (centres undefined),active: 0.731 µM
4,CCCc1cc(=O)n(-c2nc3ccccc3s2)[nH]1,"inconclusive: 23.1 µM [activator, partial curve]"
5,COc1cc(CN(C)CCc2ccccn2)cc(OC)c1OC,"inconclusive: 32.6 µM [activator, single point]"
6,CC1CCN(C(=O)Cn2ncc3c4ccccc4n(C)c3c2=O)CC1,"inconclusive: 9.2 µM [activator, partial curve]"
7,Cc1ccc(S(=O)(=O)/N=C2/C=C(C3C(=O)CC(C)(C)CC3=O)C(=O)c3ccccc32)cc1,inactive
8,CC(C)(C)S(=O)(=O)N1C[C@@H]2C(=CC[C@H]3C(=O)N(c4ccccc4)C(=O)[C@@H]23)[C@@H]1CCO,inactive
9,COc1cc(/C=N/n2c(C)nc3ccccc3c2=O)ccc1O,"inconclusive: 6.51 µM [activator, single point]"
10,CC(=NNC(=S)N1CCCCCC1)c1cccc2cccnc12,"inconclusive: 18.4 µM [falling, single point]"
11,CN(C(=O)c1cccc(NC(=O)C2CCN(C(=O)OC(C)(C)C)CC2)c1)C1CCCCC1,"inconclusive: 18.4 µM [falling, single point]"
12,CCCCOC(=O)C1=C(C)Nc2ncnn2C1c1cccc(OC)c1 (centres undefined),"inconclusive: 9.2 µM [falling, partial curve, poor fit]"
13,O=c1c2ccc(Cl)cc2nc(-c2ccc([N+](=O)[O-])cc2)n1O,"inconclusive: 29.1 µM [activator, single point]"
14,COc1ccc(/C=N/NC(=O)C(=O)N2CCCCCC2)cc1,"inconclusive: 3.66 µM [activator, partial curve, poor fit]"
15,O=C(COc1ccccc1Cl)Nc1ccc(NC(=O)c2ccco2)cc1,"inconclusive: 9.2 µM [falling, partial curve, poor fit]"
16,CC(C)OCCCn1c(SCC(=O)N2CCc3ccccc32)nc2ccccc2c1=O,"inconclusive: 1.64 µM [falling, full curve, poor fit]"
17,CCOC(=O)C(C)Oc1cccc2c(=O)n(CC(=O)NCc3ccccc3)ccc12 (centres undefined),"inconclusive: 23.1 µM [activator, single point]"
18,O=C(N/N=C/c1ccco1)Nc1ccccc1,inactive
19,CCOc1nc(-c2ccccc2)ccc1-c1noc(-c2ccco2)n1,inactive
20,c1ccc(-c2nnc3ccc(N4CCCC4)nn23)cc1,"inconclusive: 2.59 µM [falling, full curve, poor fit]"
21,COc1ccc(Cl)cc1NC(=O)c1cccc([N+](=O)[O-])c1O,"inconclusive: 16.4 µM [falling, single point]"
22,CC(=O)N1CCN(c2ccnc3cc(Cl)ccc23)CC1,"inconclusive: 29.1 µM [falling, single point]"

row,Structure (SMILES),Potency
1,COc1ccc2[nH]c3c(c2c1)CCN1C(=O)C(CC(=O)NCCC2=CCCCC2)C[C@H](C(=O)N2CCCCC2)[C@@]31C (some centres undefined),"inconclusive: 20.6 µM [falling, single point]"
2,CC(C)N(C(=O)[C@H]1C[C@H](CC(=O)NCCCN(C)C)C(=O)N2CCc3c([nH]c4cc(CCC(=O)N(C)C)ccc34)[C@]12C)C(C)C,inactive
3,Cc1ccc2c(CC(=O)N(C)c3c(N)n(Cc4ccccc4)c(=O)[nH]c3=O)coc2c1,inactive
4,CC(=O)c1ccccc1OC(=O)c1ccco1,"inconclusive: 4.11 µM [falling, full curve, poor fit]"
5,CC1=Nc2cc(C(=O)NCC3CCCO3)ccc2Sc2ccc(Br)cc21 (centres undefined),inactive
6,COc1ccc(CCN2CCC(Nc3nc4ccccc4n3Cc3ccc(F)cc3)CC2)cc1,"inconclusive: 29.1 µM [falling, single point]"
7,CN(C)C(=O)c1ccc(NC(=O)c2cccc(S(=O)(=O)N3CCCCCC3)c2)cc1,"inconclusive: 7.31 µM [falling, partial curve, poor fit]"
8,Cc1ccc(-c2nc(SCCOc3ccccc3C)n3[nH]c(=O)cc3n2)cc1,"inconclusive: 23.1 µM [activator, partial curve]"
9,CCc1ccccc1N(C(=O)c1snc(C(N)=O)c1N)C(C(=O)NCC1CCCO1)c1ccc(C)o1 (centres undefined),"inconclusive: 4.61 µM [falling, partial curve, poor fit]"
10,Cc1ccc(NC(=O)Cn2cc(S(=O)(=O)c3ccc(C)cc3)c(=O)c3cc4c(cc32)OCO4)cc1,inactive
11,O=C(CSc1nc(=O)[nH]c2c1CCCC2)Nc1cc(C(F)(F)F)cc(C(F)(F)F)c1,"inconclusive: 3.66 µM [falling, partial curve, poor fit]"
12,CC(C)OCCCNC(=O)c1ccc2c(c1)NC(=O)c1ccccc1S2,active: 20.6 µM
13,CCOc1ccc(C(=O)C(c2ccccc2)N2CCOCC2)cc1 (centres undefined),"inconclusive: 6.51 µM [activator, single point]"
14,CN(C(=O)c1cc2nc(-c3ccco3)cc(C(F)(F)F)n2n1)c1ccc(OC(F)(F)Cl)cc1,"inconclusive: 6.51 µM [falling, full curve]"
15,Cc1cc2c(N=O)c(NO)ccc2[nH]1,"inconclusive: 29.1 µM [falling, partial curve, poor fit]"
16,CCn1c(=O)sc2cc(NS(=O)(=O)c3ccc(F)c(C)c3)ccc21,active: 18.4 µM
17,Cc1ccc(CSc2cn(CC(=O)N3CCCC3)c3ccccc23)cc1,"inconclusive: 29.1 µM [activator, single point]"
18,Cc1noc(C)c1-c1csc(N2CCC(C(N)=O)CC2)n1,"inconclusive: 16.4 µM [activator, partial curve, poor fit]"
19,NS(=O)(=O)c1ccc(N/N=C/c2cn(-c3ccccc3)nc2-c2cccs2)c([N+](=O)[O-])c1,active: 10.3 µM
20,Cc1nc2cc(NC(=O)CCS(=O)(=O)c3ccccc3)ccc2s1,"inconclusive: 0.92 µM [activator, full curve]"
